# PubChem BioAssay AID504784, Drosophila RNAi Screening Center, 2011
# Assay: 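Search for regulators of lipid droplet storage in oleate-fed fly cells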 (primary screen)
# Cell system: Drosophila Kc167 embryonic cells
# Reagent: long dsRNA against Drosophila genes, about 250 ng dsRNA per well
# Duration: 4 days
# Challenge: cells fed 400 µM oleic acid bound to BSA
# Read-out: 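Microscope images give a droplet-to-nucleus area ratio, taken as log and converted to a screen-wide B-score; higher values mean greater lipid storage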
# Reading the numbers: droplet/nuclear area B-score: higher = more stored lipid (overstorage)
# In all, the deposit lists about 17,000 reagents; below is an unselected part of those with a known target gene and a result. 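Each column is one replicate's B-score; the combined score over replicates was not deposited, so single values may mislead.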 Not all columns of the deposit are shown. No sequences are given here.
The first 4 records as a preview:
target,amplicon,"droplet/nuclear area B-score, replicate 1","droplet/nuclear area B-score, replicate 2"
NimC4,DRSC01945,0.974,0.0909
CG7329,DRSC03046,-0.00215,-0.0344
CG32588,DRSC22285,-0.0717,-0.0372
qless,DRSC15103,1.4,-0.14

The list itself, from the first entry:
target,amplicon,"droplet/nuclear area B-score, replicate 1","droplet/nuclear area B-score, replicate 2"
NimC4,DRSC01945,0.974,0.0909
CG7329,DRSC03046,-0.00215,-0.0344
CG32588,DRSC22285,-0.0717,-0.0372
qless,DRSC15103,1.4,-0.14
qless,DRSC15507,1.04,-0.509
CG33296,DRSC00998,0.893,1.52
RpS16,DRSC04442,3.42,1.54
Usp15-31,DRSC04426,-0.0431,-1.82
Usp15-31,DRSC04532,3.38,1.26
l(2)efl,DRSC04698,1.86,-0.376
Cse1,DRSC03287,1.07,0.0575
Rnmt,DRSC03558,-0.368,-0.0356
Dhc16F,DRSC20242,-0.828,-0.00109
CG3323,DRSC18303,0.262,-1.11
Xe7,DRSC12307,0.151,0.13
CG4641 (retired record),DRSC10439,-0.674,0.174
gus,DRSC04885,-0.311,-0.0229
gus,DRSC04886,0.301,-0.0172
CG4935,DRSC01924,0.0786,0.826
CG14111,DRSC10114,0.804,0.0692
Klp10A,DRSC19601,1.19,0.201
CG13557,DRSC04195,-2.6,0.0519
Uxt,DRSC01962,-1.61,-0.0951
CG12398,DRSC19454,1.33,-1.19
NKCC,DRSC12140,-3.58,0.559
NKCC,DRSC12311,2.84,1.59
Orc6,DRSC07497,0.064,-0.7
CG4957,DRSC02793,-1.57,-1.07
homer,DRSC03547,0.00863,0.142
spir,DRSC03619,-1.02,0.725
LUBEL,DRSC02141,0.421,-1.34
CG33281,DRSC00421,-0.025,-0.45
Dtg,DRSC15998,-4.54,0.0913
CG12498,DRSC18635,-0.227,0.435
